Experimental data from patent US20240158510A1 (GOVERNING COUNCIL OF THE UNIVERSITY OF TORONTO, published 2024).
Changes are numbered by the printed parent chain. These are yes or no findings as the source states them, for the method shown. Some entries that bind do so weakly or less than the wild type. One block for each binder: values may come before it.

Amino acid sequences for entries named in this document (tags omitted). A change or cut given only in a name is not applied to a line headed by its entry.
UniProt P06756: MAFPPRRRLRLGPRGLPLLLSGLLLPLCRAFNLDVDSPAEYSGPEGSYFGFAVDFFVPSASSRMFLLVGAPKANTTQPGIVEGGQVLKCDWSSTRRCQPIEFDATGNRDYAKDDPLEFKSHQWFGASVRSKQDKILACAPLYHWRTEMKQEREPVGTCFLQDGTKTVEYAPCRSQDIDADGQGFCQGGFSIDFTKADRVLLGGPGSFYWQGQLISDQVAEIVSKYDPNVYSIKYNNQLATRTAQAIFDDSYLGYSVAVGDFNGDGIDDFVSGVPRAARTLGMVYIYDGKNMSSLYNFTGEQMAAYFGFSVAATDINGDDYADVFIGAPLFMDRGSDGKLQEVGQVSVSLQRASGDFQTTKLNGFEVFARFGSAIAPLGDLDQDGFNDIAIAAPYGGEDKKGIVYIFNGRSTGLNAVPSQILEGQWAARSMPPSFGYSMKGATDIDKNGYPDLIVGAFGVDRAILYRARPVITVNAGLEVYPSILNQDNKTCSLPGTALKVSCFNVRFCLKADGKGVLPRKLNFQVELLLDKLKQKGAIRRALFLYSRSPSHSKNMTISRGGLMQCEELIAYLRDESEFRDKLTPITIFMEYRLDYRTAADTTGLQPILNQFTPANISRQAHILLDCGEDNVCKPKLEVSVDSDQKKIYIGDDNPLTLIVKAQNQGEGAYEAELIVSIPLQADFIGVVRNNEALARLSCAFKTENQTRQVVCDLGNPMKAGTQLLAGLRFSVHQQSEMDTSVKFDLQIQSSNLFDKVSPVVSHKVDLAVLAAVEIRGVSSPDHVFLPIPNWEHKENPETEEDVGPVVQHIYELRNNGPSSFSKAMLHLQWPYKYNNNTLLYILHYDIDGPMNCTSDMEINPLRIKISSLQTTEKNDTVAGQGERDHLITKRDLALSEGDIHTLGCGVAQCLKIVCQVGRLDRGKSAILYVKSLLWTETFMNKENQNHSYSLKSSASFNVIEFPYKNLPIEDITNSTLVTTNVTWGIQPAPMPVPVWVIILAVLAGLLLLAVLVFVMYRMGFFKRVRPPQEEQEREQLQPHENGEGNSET

Legend:
[1] = target: T1, integrin αvβ1 expressed on CHO cells (UniProt P06756 31-1048; P05556 21-798, limits assumed); experiment: flow cytometry on AvB1 CHO cells after freeze-thaw, each group normalised to its own untreated sample; no control IgG in this panel
[2] = target: T1, integrin αvβ1 expressed on CHO cells; experiment: flow cytometry, 10404 Fab on integrin-αvβ1 CHO cells
[3] = target: T1, integrin αvβ1 expressed on CHO cells; experiment: flow cytometry, Fab on integrin-αvβ1 CHO cells
[4] = target: T2, integrin αvβ5 expressed on CHO cells (UniProt P06756 31-1048; P18084 24-799, limits assumed); experiment: flow cytometry titration (MFI) on AvB5 CHO cells
[5] = target: Recombinant integrin αv heterodimer (e.g., integrin-αvβ1); experiment: bio-layer interferometry (Octet), titration series
[6] = target: T1, integrin αvβ1 expressed on CHO cells; experiment: flow cytometry titration (MFI) on AvB1 CHO cells
[7] = target: T1, integrin αvβ1 expressed on CHO cells; experiment: flow cytometry titration on integrin CHO cells, signal normalised to 100; x axis 0.01-1000 without unit
[8] = target: T3, integrin αvβ6 expressed on CHO cells (UniProt P06756 31-1048; P18564 22-788, limits assumed); experiment: as above
[9] = target: T2, integrin αvβ5 expressed on CHO cells; experiment: as above
[10] = target: T4, integrin αvβ8 expressed on CHO cells (UniProt P06756 31-1048; P26012 43-769, limits assumed); experiment: as above
[11] = target: T5, integrin αvβ3 expressed on CHO cells (UniProt P06756 31-1048; P05106 27-788, limits assumed); experiment: as above
[12] = target: T5, integrin αvβ3 expressed on CHO cells; experiment: flow cytometry titration (MFI) on AvB3 CHO cells
[13] = target: T4, integrin αvβ8 expressed on CHO cells; experiment: flow cytometry titration (MFI) on AvB8 CHO cells
[14] = target: T6, recombinant human integrin-αvβ1 (human, UniProt P06756 31-992; P05556 21-728, limits assumed); experiment: ELISA-type titration (Abs 450 nm) on recombinant integrin-αvβ1; panel titled 'Human', legend paragraph 77 says mouse; target follows the panel title and Table 3
T6 construct: also called Recombinant Human Integrins

[15] = target: T3, integrin αvβ6 expressed on CHO cells; experiment: flow cytometry titration (MFI) on AvB6 CHO cells
[16] = target: T1, integrin αvβ1 expressed on CHO cells; experiment: flow cytometry titration on integrin-αvβ1 CHO cells

B1: 11867 hG4 (antibody, human IgG4, V domains shown)
VH: EVQLVESGGGLVQPGGSLRLSCAASGFDFDSYAIHWVRQAPGKGLEWVAYFYPGHDYSTYADSVKGRFTISADTSKNTAYLQMNSLRAEDTAVYYCARPSPYFSWHQAMDYWGQGTLVTVSS
VL: DIQMTQSPSSLSASVGDRVTITCRASQSVSSAVAWYQQKPGKAPKLLIYSASSLYSGVPSRFSGSRSGTDFTLTISSLQPEDFATYYCQQATGSEVTFGQGTKVEIK
binding [1]: binds

B2: 11867 mG1 (antibody, mouse IgG1, V domains shown)
VH: B1 VH
VL: B1 VL
binding [1]: binds

B3: 11867 m2a LLPG (antibody, mouse IgG2a, V domains shown)
VH: B1 VH
VL: B1 VL
binding [1]: binds

B5: 11867 m2a (antibody, mouse IgG2a, V domains shown)
VH: B1 VH
VL: B1 VL
binding [1]: binds

B7: 10404 hG4/hk (antibody, V domains shown)
VH: EVQLVESGGGLVQPGGSLRLSCAASGFNLYSSSIHWVRQAPGKGLEWVAYIYPSYGYTSTYADSVKGRFTISADTSKNTAYLQMNSLRAEDTAVYYCARPAPYYSWYPAMDYWGQGTLVTVSS
VL: DIQMTQSPSSLSASVGDRVTITCRASQSVSSAVAWYQQKPGKAPKLLIYSASSLYSGVPSRFSGSRSGTDFTLTISSLQPEDFATYYCQQASGSPFTFGQGTKVEIKR
notes: the IgG4 constant region used is not specified; not shown: human IgG4 constant region ('hG4')
binding [14]: binds

B8: 10404 hG1 LALA PG/hk (antibody, V domains shown)
VH: B7 VH
VL: B7 VL
notes: not shown: human IgG1 constant region with 'LALA PG' changes
binding [14]: binds

Further lines, results first:

binding [2]: binds
binding [3]: binds
B4: Fab 10404 (Fab, V domains shown)
VH: B7 VH
VL: B1 VL with T92S, E95P, V96F

binding [4]: binds
binding [5]: binds
binding [6]: binds
binding [7]: binds
binding [8]: binds
binding [9]: binds
binding [10]: binds
binding [11]: binds
binding [12]: binds
binding [13]: binds
binding [14]: binds
binding [15]: binds
B6: IgG clone 10392, hG1/hk (pSCSTa-hG1 (10392) heavy chain, pSCSTa-hK (10392) light chain) (antibody, V domains shown)
VH: EVQLVESGGGLVQPGGSLRLSCAASGFNIYYSSIHWVRQAPGKGLEWVASISSSSGSTSTYADSVKGRFTISADTSKNTAYLQMNSLRAEDTAVYYCARSYYGGGYPYALDYWGQGTLVTVSS
VL: B7 VL with A91Y, S92F, S94G, P95L, F96I
notes: Full-length human IgG1/kappa made in Expi293 cells

binding [4]: binds
binding [1]: binds
binding [6]: binds
binding [12]: binds
binding [13]: binds
binding [16]: binds
binding [15]: binds
B9: IgG 11867 (antibody, V domains shown)
VH: B1 VH
VL: B7 VL with S92T, P95E, F96V
notes: also called 11867 hG1

binding [5]: binds
binding [7]: binds
binding [8]: binds
binding [9]: binds
binding [10]: binds
binding [11]: binds
binding [14]: binds
B10: IgG clone 10404, hG1/hk (pSCSTa-hG1 (10404) heavy chain, pSCSTa-hK (10404) light chain) (antibody, V domains shown)
VH: B7 VH
VL: B7 VL
notes: as for B6
